For the assay, the target named is GSK3β, endogenous in SW480 and HT-29 cells (human (endogenous in SW480 and HT-29)) (UniProt P49841). The assay is described as follows: co-IP; endogenous GSK3β immunoprecipitated with anti-GSK3β from SW480 and HT29 cells, IB with anti-PYK2 and anti-FAK; normal IgG as IP control.

Sequences of proteins named here, by UniProt entry; tags and fusion partners are left off.
UniProt P49841: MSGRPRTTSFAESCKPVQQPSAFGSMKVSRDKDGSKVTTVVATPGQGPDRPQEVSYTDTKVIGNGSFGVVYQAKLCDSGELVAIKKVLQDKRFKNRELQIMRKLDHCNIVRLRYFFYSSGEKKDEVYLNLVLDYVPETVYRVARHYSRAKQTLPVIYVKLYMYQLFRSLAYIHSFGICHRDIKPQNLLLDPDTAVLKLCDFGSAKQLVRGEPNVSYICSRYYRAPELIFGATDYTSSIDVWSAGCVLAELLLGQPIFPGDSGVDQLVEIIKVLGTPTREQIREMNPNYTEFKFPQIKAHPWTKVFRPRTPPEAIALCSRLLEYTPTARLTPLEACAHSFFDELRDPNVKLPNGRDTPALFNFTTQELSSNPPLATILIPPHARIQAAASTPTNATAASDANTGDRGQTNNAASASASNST
UniProt Q05397: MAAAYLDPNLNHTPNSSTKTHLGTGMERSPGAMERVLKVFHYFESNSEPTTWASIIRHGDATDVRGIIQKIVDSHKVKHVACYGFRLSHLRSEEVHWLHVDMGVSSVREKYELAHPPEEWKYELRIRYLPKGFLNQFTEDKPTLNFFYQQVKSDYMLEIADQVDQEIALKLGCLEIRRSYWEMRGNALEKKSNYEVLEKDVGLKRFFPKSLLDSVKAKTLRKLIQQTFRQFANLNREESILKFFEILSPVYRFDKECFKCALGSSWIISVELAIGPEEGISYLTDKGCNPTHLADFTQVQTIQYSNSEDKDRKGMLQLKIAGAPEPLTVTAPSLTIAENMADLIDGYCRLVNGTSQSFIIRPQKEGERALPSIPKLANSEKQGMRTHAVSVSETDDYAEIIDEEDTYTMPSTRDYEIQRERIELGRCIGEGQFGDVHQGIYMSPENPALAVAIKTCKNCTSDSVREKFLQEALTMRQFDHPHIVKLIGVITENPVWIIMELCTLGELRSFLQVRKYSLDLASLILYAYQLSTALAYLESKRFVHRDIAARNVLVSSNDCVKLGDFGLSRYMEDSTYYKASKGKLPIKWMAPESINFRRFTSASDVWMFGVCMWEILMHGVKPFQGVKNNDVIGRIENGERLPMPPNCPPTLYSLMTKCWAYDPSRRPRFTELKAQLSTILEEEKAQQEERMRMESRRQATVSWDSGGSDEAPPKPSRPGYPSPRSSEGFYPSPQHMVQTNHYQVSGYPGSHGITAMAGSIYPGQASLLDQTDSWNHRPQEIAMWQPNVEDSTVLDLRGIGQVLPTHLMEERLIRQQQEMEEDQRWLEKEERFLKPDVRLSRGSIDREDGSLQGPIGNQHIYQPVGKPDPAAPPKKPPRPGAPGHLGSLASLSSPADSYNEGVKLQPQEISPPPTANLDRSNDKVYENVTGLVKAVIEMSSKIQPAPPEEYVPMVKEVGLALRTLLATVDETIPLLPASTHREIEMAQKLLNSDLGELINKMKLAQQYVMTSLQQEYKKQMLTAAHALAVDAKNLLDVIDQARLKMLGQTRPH
UniProt Q14289: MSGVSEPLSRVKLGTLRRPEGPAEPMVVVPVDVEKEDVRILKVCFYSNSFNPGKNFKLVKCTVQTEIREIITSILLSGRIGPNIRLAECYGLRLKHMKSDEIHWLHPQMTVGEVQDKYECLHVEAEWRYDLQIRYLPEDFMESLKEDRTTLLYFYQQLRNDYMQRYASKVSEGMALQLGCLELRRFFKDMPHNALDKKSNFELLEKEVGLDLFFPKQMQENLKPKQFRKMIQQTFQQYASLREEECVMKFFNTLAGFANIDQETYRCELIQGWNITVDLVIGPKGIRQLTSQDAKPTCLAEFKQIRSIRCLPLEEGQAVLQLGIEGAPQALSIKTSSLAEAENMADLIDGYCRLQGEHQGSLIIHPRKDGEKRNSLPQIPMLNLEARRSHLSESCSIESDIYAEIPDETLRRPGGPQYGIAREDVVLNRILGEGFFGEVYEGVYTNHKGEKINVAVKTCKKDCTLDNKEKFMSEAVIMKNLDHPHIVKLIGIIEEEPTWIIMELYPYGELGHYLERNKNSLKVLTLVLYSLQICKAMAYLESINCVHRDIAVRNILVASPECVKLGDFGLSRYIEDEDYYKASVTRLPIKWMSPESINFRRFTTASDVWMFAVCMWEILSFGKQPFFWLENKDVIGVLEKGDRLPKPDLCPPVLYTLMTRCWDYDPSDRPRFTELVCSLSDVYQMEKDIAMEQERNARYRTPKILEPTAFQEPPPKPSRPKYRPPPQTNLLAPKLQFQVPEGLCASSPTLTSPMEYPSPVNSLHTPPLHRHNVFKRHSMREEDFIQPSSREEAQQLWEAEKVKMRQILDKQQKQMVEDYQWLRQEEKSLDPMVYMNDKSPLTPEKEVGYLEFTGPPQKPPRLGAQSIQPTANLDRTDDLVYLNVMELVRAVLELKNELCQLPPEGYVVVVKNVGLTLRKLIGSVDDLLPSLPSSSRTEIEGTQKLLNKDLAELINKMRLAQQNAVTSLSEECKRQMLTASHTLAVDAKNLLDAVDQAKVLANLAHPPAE

These are yes or no findings as the source states them, for the method shown. Binding seen in cells or lysates may run through a third protein. Some entries that bind do so weakly or less than the wild type.

Turning to “FAK, endogenous in HT-29 cells (from UniProt Q05397 1-1052) (enzyme)”, the binding entry is given as “binds”. Consider “PYK2, endogenous in SW480 cells (from UniProt Q14289 1-1009) (enzyme)”, for which the binding entry is “binds”.
